According to paper PMC4265501:
Results are given in words; binding and its absence hold for the method and conditions named. In cells and extracts the contact can be indirect. Some results given as binding are weak or reduced against the parent protein; the word gives no strength.

Chains of the proteins cited; added tags and fusions are not shown.
UniProt P26641: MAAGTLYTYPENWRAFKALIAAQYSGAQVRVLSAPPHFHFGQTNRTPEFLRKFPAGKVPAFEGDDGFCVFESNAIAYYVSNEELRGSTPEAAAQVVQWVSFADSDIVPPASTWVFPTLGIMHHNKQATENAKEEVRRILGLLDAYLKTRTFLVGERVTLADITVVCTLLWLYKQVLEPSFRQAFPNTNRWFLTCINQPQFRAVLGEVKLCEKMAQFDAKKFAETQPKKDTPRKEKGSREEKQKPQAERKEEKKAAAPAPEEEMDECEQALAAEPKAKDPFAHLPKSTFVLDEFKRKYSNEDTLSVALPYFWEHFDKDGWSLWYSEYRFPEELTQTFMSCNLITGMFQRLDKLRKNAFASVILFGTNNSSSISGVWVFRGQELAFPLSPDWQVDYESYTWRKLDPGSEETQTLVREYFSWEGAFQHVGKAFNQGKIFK
UniProt P29692: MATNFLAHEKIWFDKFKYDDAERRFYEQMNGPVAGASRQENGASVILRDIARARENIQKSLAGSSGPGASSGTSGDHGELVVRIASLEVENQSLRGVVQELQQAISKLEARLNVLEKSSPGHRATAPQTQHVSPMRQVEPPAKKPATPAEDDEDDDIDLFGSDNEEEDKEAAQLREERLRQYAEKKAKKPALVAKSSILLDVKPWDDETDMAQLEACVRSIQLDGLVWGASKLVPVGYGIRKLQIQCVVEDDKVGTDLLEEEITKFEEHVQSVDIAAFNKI

Tests used:
[1] = target: eukaryotic translation elongation factor 1B gamma (eEF1Bγ) (human (endogenous in A549)) (UniProt P26641); assay: co-IP; pre-cleared cytoplasmic extract of A549 cells; rabbit anti-eEF1Bγ antibodies (1.5 μg per 1 mg of total protein), Protein G Sepharose, 4°C; Western blot
[2] = target: eukaryotic translation elongation factor 1B gamma (eEF1Bγ) (human (endogenous in A549)) (UniProt P26641); assay: co-IP; pre-cleared nuclear extract of A549 cells (nuclear lysis buffer with 0.42 M NaCl); rabbit anti-eEF1Bγ antibodies (1.5 μg per 1 mg of total protein), Protein G Sepharose, 4°C; Western blot

Row | Molecule | binding [1] | binding [2]
1 | eukaryotic translation elongation factor 1B beta (eEF1Bβ) (from UniProt P29692 1-281) | binds | binds
2 | eukaryotic translation elongation factor 1B alpha (eEF1Bα) (protein, UniProt P24534 1-225) MGFGDLKSPAGLQVLNDYLADKSYIEGYVPSQADVAVFEAVSSPPPADLCHALRWYNHIKSYEKEKASLPGVKKALGKYGPADVEDTTGSGATDSKDDDDIDLFGSDDEEESEEAKRLREERLAQYESKKAKKPALVAKSSILLDVKPWDDETDMAKLEECVRSIQADGLVWGSSKLVPVGYGIKKLQIQCVVEDDKVGTDMLEEQITAFEDYVQSMDVAAFNKI | binds | binds
